Experimental data: patent publication US5817652A, “Hypolipidaemic condensed 1,4-thiazepines” (Glaxo Wellcome Inc., priority 1993, dated 1998)
At least one structure is not confirmed: it was looked up by name or label, or the drawing left a doubt.

System: rat distal ileal brush border membrane vesicles
Assay: In vitro inhibition of bile acid uptake (sodium-dependent 3H taurocholate uptake)
Type: biochemical
Conditions: active (sodium-dependent) 3H taurocholate uptake, 30 seconds at 24° C., pH 7.4
Description: In vitro inhibition of bile acid uptake
Freshly prepared rat distal ileal brush border membrane vesicles (about […] vesicle protein) were incubated for 30 seconds at 24° C. in an incubation mixture comprising […] ^3 H taurocholate, 100 mM NaCl (or KCl) and 80 mM mannitol in 20 mM Herpes Tris pH 7.4. Each test compound was dissolved in ethanol (or water) and then diluted with incubation mixture to an ethanol concentration of not more than 1% v/v. The incubation was terminated by rapid dilution and filtration and the filter washed with an ice-cold isotonic sodium-free buffer.
The uptake of ^3 H taurocholate was measured by the radioactivity remaining on the filter and converted to pmoles/mg vesicle protein. The active, ie sodium-dependent, uptake was obtained by subtracting the passive uptake measured in 100 mM KCl from the total uptake measured in 100 mM NaCl. The active uptake for each test compound was compared with a control active uptake and the results expressed as % inhibition of bile acid uptake.

SMILES | % inhibition of bile acid uptake (10 μM compound) [%] | % inhibition of bile acid uptake (0.3 μM compound) [%] | % inhibition of bile acid uptake (1 μM compound) [%] | % inhibition of bile acid uptake (3 μM compound) [%]
CC[C@]1(C(C)C)CS(=O)(=O)c2ccccc2[C@H](c2ccccc2)N1 (racemic) [Example 42, (±)-Trans-3-Ethyl-2,3,4,5-tetrahydro-3-isopropyl-5-phenyl-1,4-benzothiazepine 1,1-dioxide] | 42 | – | – | –
CCCC[C@]1(CC)CS(=O)(=O)c2ccccc2[C@H](c2cccnc2)N1 (racemic) [Example 39, (±)-Cis-3-Butyl-3-ethyl-2,3,4,5-tetrahydro-5-(3-pyridyl)-1,4-benzothiazepine 1,1-dioxide] | 14 | – | – | –
C/C=C/C[C@@]1(CC)CS(=O)(=O)c2ccccc2[C@H](c2ccccc2)N1 (racemic) [Example 2, (±)-trans-3-((E)-2-butenyl)-3-ethyl-2,3,4,5-tetrahydro-5-phenyl-1,4-benzothiazepine 1,1-dioxide] | 77 | 11 | 39 | 64
